Assay results reported in patent US12521379B2, “Use of FK506 for the treatment of pulmonary arterial hypertension” (The Board of Trustees of the Leland Stanford Junior …, priority 2011, dated 2026).
For at least one compound, name, drawing or mass did not settle the structure.

What was measured:
PAECs [1] = experiment: Tube formation in an angiogenesis assay; format: cell-based; conditions: n=3, p<0.01
Method: (§1) 3600 FDA approved drugs and bioactive compounds were screened for their ability to activate BMP signaling, using a C2C12 mouse myoblast cell line stably transfected with a reporter plasmid expressing a BMP response element (BRE) from the Id1 promoter fused to the luciferase-gene (BRE-luc). Whether the best qHTS-BMPRII activator can induce Smad phosphorylation (phospho), Id1 expression and promote PAEC survival and tube formation was determined using BMP4 as a positive control. Whether the qHTS-BMPRII-activator would prevent PAH in mice with a conditional deletion in BMPRII in ECs (BMPRII-SCL-CreERT) that develop exaggerated PAH after 3 weeks of hypoxia (10% O2) was determined. In order to assess whether the BMPRII activator could also reverse PAH, we used 2 models of severe experimental PH in rats: 1. Monocrotaline induced pulmonary hypertension with development of severe medial hypertrophy of the pulmonary arteries 3 weeks after injection. 2. SUGEN (VEGF-Receptor blocker) and 3-week chronic hypoxia induced pulmonary hypertension with development of neointima formation in pulmonary arteries 8 weeks after initiation of the stimulus. Both groups were treated with FK-506 for 3 weeks via sc osmotic pump (0.05 mg/kg/d) after PAH and remodeling of the pulmonary arteries was established. The serum level of FK-506 in mice and rats was aimed to be 0.2 ng/ml.

[2] = tested on: PAECs harvested from IPAH patients; experiment: p-Smad 1/5/8 and Id1 expression in PAECs harvested from IPAH patients; format: cell-based, human; conditions: PAECs from six different IPAH patients at the time of transplant
Method: as §1

PAECs [3] = experiment: PAEC survival; format: cell-based; conditions: n=5, p<0.001
Method: as §1

[4] = tested on: BMPRII signaling (phospho-Smad 1/5/8, Id1); experiment: Smad phosphorylation and Id1 protein expression after stimulation; format: cell-based; conditions: 1h following stimulation, n=3
[5] = tested on: BMP signaling (BMP response element from the Id1 promoter fused to luciferase); experiment: qHTS of 3600 FDA approved drugs and bioactive compounds, BRE-luc reporter in C2C12 myoblasts; format: cell-based, mouse; conditions: screen of 3600 compounds

What does the source list for `C=CC[C@@H]1/C=C(\C)C[C@H](C)C[C@H](OC)[C@H]2O[C@@](O)(C(=O)C(=O)N3CCCC[C@H]3C(=O)O[C@H](/C(C)=C/[C@@H]3CC[C@@H](O)[C@H](OC)C3)[C@H](C)[C@@H](O)CC1=O)[C@H](C)C[C@@H]2OC` [FK-506]?
tube formation (PAECs [1]): induced tube formation; Id1 expression [2]: induced; p-Smad 1/5/8 [2]: induced; survival of PAECs (PAECs [3]): improved survival; Id1 protein expression ([4]; 0.2 ng/ml): increased Id1 protein expression; Id1 protein expression ([4]; 15 ng/ml): increased Id1 protein expression; activation of Id1 expression (BRE-luc screen) [5]: main activator of Id1 expression
